In patent US6838445B1 (Kyogo Itoh, priority 1998, dated 2005):
Where no end group is shown, it is not given here.

How the values were obtained:
[1] = general procedure: Fmoc solid-phase peptide synthesis; Fmoc-Phe-Alko Resin; details: whole synthesis, scale 100 mg resin
[2] = general procedure: Fmoc solid-phase peptide synthesis; Fmoc-Leu-Alko Resin; details: whole synthesis, scale 100 mg resin

Row | Sequence | isolated mass [1] [mg] | isolated mass [2] [mg]
1 | AFRQLSHRF | 18.4 | –
2 | KMKTERRMKKL | – | 38.1
3 | RMKKLDEEAL | – | 24.6
4 | RMKKLDEEALL | – | 28.8
